Laboratory results reported in publication PMC5641076.
These are yes or no findings as the source states them, for the method shown. Binding seen in cells or lysates may run through a third protein. Some results given as binding are weak or reduced against the parent protein; the word gives no strength. Tags and fused reporters may be left off the sequences shown.

The chains behind the UniProt entries cited, without tags or fusion partners.
UniProt P06493: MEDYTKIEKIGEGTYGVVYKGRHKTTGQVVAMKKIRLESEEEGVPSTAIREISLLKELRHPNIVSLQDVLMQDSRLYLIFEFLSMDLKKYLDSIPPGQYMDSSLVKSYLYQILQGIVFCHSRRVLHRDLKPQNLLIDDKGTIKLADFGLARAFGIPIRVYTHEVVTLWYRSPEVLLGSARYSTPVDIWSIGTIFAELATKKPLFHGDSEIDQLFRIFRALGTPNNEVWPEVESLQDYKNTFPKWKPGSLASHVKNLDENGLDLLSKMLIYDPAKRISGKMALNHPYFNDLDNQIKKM

Molecular target: Flag-CDK1 (human) (UniProt P06493)
Test: co-IP; pcDNA-Flag-CDK1 and pcDNA-Myc-iASPP co-transfected into HCT116 and LoVo cells; IP with Flag monoclonal antibodies, Western blot with Flag and Myc antibodies; lysates treated with DNase and RNase

B1: Myc-iASPP (protein, UniProt Q8WUF5 1-828)
chain: MDSEAFQSARDFLDMNFQSLAMKHMDLKQMELDTAAAKVDELTKQLESLWSDSPAPPGPQAGPPSRPPRYSSSSIPEPFGSRGSPRKAATDGADTPFGRSESAPTLHPYSPLSPKGRPSSPRTPLYLQPDAYGSLDRATSPRPRAFDGAGSSLGRAPSPRPGPGPLRQQGPPTPFDFLGRAGSPRGSPLAEGPQAFFPERGPSPRPPATAYDAPASAFGSSLLGSGGSAFAPPLRAQDDLTLRRRPPKAWNESDLDVAYEKKPSQTASYERLDVFARPASPSLQLLPWRESSLDGLGGTGKDNLTSATLPRNYKVSPLASDRRSDAGSYRRSLGSAGPSGTLPRSWQPVSRIPMPPSSPQPRGAPRQRPIPLSMIFKLQNAFWEHGASRAMLPGSPLFTRAPPPKLQPQPQPQPQPQSQPQPQLPPQPQTQPQTPTPAPQHPQQTWPPVNEGPPKPPTELEPEPEIEGLLTPVLEAGDVDEGPVARPLSPTRLQPALPPEAQSVPELEEVARVLAEIPRPLKRRGSMEQAPAVALPPTHKKQYQQIISRLFHRHGGPGPGGPEPELSPITEGSEARAGPPAPAPPAPIPPPAPSQSSPPEQPQSMEMRSVLRKAGSPRKARRARLNPLVLLLDAALTGELEVVQQAVKEMNDPSQPNEEGITALHNAICGANYSIVDFLITAGANVNSPDSHGWTPLHCAASCNDTVICMALVQHGAAIFATTLSDGATAFEKCDPYREGYADCATYLADVEQSMGLMNSGAVYALWDYSAEFGDELSFREGESVTVLRRDGPEETDWWWAALHGQEGYVPRNYFGLFPRVKPQRSKV
- binding: binds
